The target in experiment [1] is T1, GBP1 (human (endogenous in A549)) (UniProt P32455).
T1 sequence: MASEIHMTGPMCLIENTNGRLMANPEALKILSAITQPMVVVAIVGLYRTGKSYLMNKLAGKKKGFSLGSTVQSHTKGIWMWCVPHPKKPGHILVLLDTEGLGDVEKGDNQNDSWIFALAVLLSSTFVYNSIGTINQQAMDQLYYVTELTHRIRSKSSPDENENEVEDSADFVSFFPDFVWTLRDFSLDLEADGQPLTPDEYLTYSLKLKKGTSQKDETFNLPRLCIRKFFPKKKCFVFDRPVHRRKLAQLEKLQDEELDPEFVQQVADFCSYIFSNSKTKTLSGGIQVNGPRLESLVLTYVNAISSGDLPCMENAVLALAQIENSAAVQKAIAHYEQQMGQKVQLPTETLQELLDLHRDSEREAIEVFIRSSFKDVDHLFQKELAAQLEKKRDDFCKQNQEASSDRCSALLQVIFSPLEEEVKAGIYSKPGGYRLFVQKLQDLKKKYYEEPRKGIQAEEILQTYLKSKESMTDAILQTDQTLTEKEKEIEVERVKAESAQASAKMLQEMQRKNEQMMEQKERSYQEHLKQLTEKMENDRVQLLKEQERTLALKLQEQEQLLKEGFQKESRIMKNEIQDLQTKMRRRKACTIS
The experiment is described as follows: co-IP; A549 cell lysates after transfection of Flag-IDO1; anti-flag magnetic beads, GBP1 detected; reciprocal capture by GBP1.

Sequences of proteins named here, by UniProt entry; tags and fusion partners are left off. A change or cut given only in a name is not applied to a line headed by its entry. A line that says so, or that is headed by a name, gives the form on record, which may keep a tag or linker. Residues count along the entry.
UniProt P14902: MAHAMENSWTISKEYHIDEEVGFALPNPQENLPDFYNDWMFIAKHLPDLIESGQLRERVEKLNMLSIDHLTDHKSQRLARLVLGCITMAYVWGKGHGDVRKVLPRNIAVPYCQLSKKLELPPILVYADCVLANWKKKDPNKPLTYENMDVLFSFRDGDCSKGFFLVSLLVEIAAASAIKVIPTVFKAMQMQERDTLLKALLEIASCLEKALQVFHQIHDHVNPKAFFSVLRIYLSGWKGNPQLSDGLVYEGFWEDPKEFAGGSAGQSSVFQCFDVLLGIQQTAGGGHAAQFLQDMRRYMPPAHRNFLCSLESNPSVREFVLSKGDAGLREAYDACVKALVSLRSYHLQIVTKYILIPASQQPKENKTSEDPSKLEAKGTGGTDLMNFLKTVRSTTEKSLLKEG
truncated GST-fused IDO1 (45 amino acids at the N-terminus removed): residues 46-403 of P14902

The target of experiment [2] is Flag-tagged IDO1 (indoleamine 2,3-dioxygenase 1) (UniProt P14902). The description is as above.
For experiment [3], the target named is truncated GST-fused IDO1 (45 amino acids at the N-terminus removed) (UniProt P14902). The experiment is described as follows: pull-down; GST pull-down in vitro: GST-fused IDO1 (whole or truncated) with in vitro transcribed GBP1; only the target purified.
The next experiment concerns the target GST fused IDO1 (UniProt P14902). The experiment is described as above.

Results are given in words; binding and its absence hold for the method and conditions named. Binding seen in cells or lysates may run through a third protein. Some binding calls cover weakened binding; strength is not graded here.

In the case of “Flag-tagged IDO1 (indoleamine 2,3-dioxygenase 1) (from UniProt P14902 1-403) (enzyme)”, in experiment [1], the binding result is “binds”.

B1: GBP1 (protein, UniProt P32455 1-592)
chain: MASEIHMTGPMCLIENTNGRLMANPEALKILSAITQPMVVVAIVGLYRTGKSYLMNKLAGKKKGFSLGSTVQSHTKGIWMWCVPHPKKPGHILVLLDTEGLGDVEKGDNQNDSWIFALAVLLSSTFVYNSIGTINQQAMDQLYYVTELTHRIRSKSSPDENENEVEDSADFVSFFPDFVWTLRDFSLDLEADGQPLTPDEYLTYSLKLKKGTSQKDETFNLPRLCIRKFFPKKKCFVFDRPVHRRKLAQLEKLQDEELDPEFVQQVADFCSYIFSNSKTKTLSGGIQVNGPRLESLVLTYVNAISSGDLPCMENAVLALAQIENSAAVQKAIAHYEQQMGQKVQLPTETLQELLDLHRDSEREAIEVFIRSSFKDVDHLFQKELAAQLEKKRDDFCKQNQEASSDRCSALLQVIFSPLEEEVKAGIYSKPGGYRLFVQKLQDLKKKYYEEPRKGIQAEEILQTYLKSKESMTDAILQTDQTLTEKEKEIEVERVKAESAQASAKMLQEMQRKNEQMMEQKERSYQEHLKQLTEKMENDRVQLLKEQERTLALKLQEQEQLLKEGFQKESRIMKNEIQDLQTKMRRRKACTIS
In the case of B1, in experiment [2], the binding entry is reported as “binds”.

B2: in vitro transcribed GBP1 (protein, UniProt P32455 1-592)
chain: MASEIHMTGPMCLIENTNGRLMANPEALKILSAITQPMVVVAIVGLYRTGKSYLMNKLAGKKKGFSLGSTVQSHTKGIWMWCVPHPKKPGHILVLLDTEGLGDVEKGDNQNDSWIFALAVLLSSTFVYNSIGTINQQAMDQLYYVTELTHRIRSKSSPDENENEVEDSADFVSFFPDFVWTLRDFSLDLEADGQPLTPDEYLTYSLKLKKGTSQKDETFNLPRLCIRKFFPKKKCFVFDRPVHRRKLAQLEKLQDEELDPEFVQQVADFCSYIFSNSKTKTLSGGIQVNGPRLESLVLTYVNAISSGDLPCMENAVLALAQIENSAAVQKAIAHYEQQMGQKVQLPTETLQELLDLHRDSEREAIEVFIRSSFKDVDHLFQKELAAQLEKKRDDFCKQNQEASSDRCSALLQVIFSPLEEEVKAGIYSKPGGYRLFVQKLQDLKKKYYEEPRKGIQAEEILQTYLKSKESMTDAILQTDQTLTEKEKEIEVERVKAESAQASAKMLQEMQRKNEQMMEQKERSYQEHLKQLTEKMENDRVQLLKEQERTLALKLQEQEQLLKEGFQKESRIMKNEIQDLQTKMRRRKACTIS
Take B2: the binding entry (in experiment [3]; in the experiment with GST fused IDO1) was “binds” throughout.

These data come from article PMC7857027.
